The record followed here is the supplement of paper PMC7024190.

Where a name gives a salt, the structure may show the parent alone. The list shows a part of the results. Repeats in this data set agree poorly, so a single value says little.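 The cells were human embryonic kidney cells carrying a Renilla luciferase gene, driven by the HSV-TK promoter, on a plasmid put in briefly by transfection. This is the first-round screen of about ten thousand compounds, looking for ones that raise reporter output.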

This assay relates to HEK 293FT. Briefly: log relative Renilla luciferase luminescence (reporter expression vs reference, reference not stated) (log (base not stated)); higher = higher recombinant reporter expression. The following applies: 10 µM; time after transfection 48 h.
In the case of `CN1CCCC(n2nc(Cc3ccc(Cl)cc3)c3ccccc3c2=O)CC1` (stereo unspecified) [azelastine hydrochloride], the log came to 0.0463.
The result for `O=C(CNC(=O)c1ccc(Cl)cc1)NO` [benurestat] reads 0.0147.
The result for `CC(=O)Oc1cccc(O)c1` [resorcinol monoacetate] reads 0.255.
With `CCN1CCN(C(=O)N[C@@H](C(=O)N[C@@H]2C(=O)N3[C@@H]2SC(C)(C)[C@@H]3C(=O)O)c2ccccc2)C(=O)C1=O` [piperacillin sodium], the log was -0.0298.
With `C=CCCCCCCCCCCCC(O)CC(O)CO` (stereo unspecified) [avocadene], the log stood at 0.0726.
Consider `CO[C@@H]1[C@@H](OC(N)=O)[C@@H](O)[C@H](Oc2ccc3c(O)c(NC(=O)c4ccc(O)c(CC=C(C)C)c4)c(=O)oc3c2C)OC1(C)C` [novobiocin sodium], for which the log was -0.0988.
The result for `CN1C2CCCC1CC(NC(=O)c1nn(C)c3ccccc13)C2` (stereo unspecified) [granisetron hydrochloride] reads 0.164.
On to `CC(C)CCC[C@@H](C)[C@H]1CC[C@H]2[C@@H]3CC=C4CC(=O)CC[C@]4(C)[C@H]3CC[C@]12C` [cholest-5-en-3-one], for which the log came out at 0.033.
The result for `CC(C)N1CCN(c2ccc(OCC3COC(Cn4cncn4)(c4ccc(Cl)cc4Cl)O3)cc2)CC1` (stereo unspecified) [terconazole] reads -0.241; that for `CCN(Cc1ccncc1)C(=O)C(CO)c1ccccc1` (stereo unspecified) [tropicamide], -0.0739.
`OC(CCN1CCCCC1)(c1ccccc1)C1CC2C=CC1C2` (stereo unspecified) [biperiden]: the log is -0.0702.
The result for `Cc1ncc([N+](=O)[O-])n1CCO` [metronidazole] reads -0.147; that for `CCN(CC)CC#CCOC(=O)C(O)(c1ccccc1)C1CCCCC1` (stereo unspecified) [oxybutynin chloride], -0.0775; that for `Oc1nc2cc(Cl)c(Cl)cc2nc1O` [2,3-dihydroxy-6,7-dichloroquinoxaline], 0.0931.
The result for `CC(=O)OC1CCC23CC1(C)CCC2C(C)(C)CC3OC(C)=O` (stereo unspecified) [clovanediol diacetate] reads 0.0342.
The same measure for `C=CC[C@@H]1/C=C(\C)C[C@H](C)C[C@H](OC)[C@H]2O[C@@](O)(C(=O)C(=O)N3CCCC[C@H]3C(=O)O[C@H](/C(C)=C/[C@@H]3CC[C@@H](O)[C@H](OC)C3)[C@H](C)[C@@H](O)CC1=O)[C@H](C)C[C@@H]2OC` [tacrolimus]: 0.208; for `NC[C@H]1O[C@H](O[C@H]2[C@H](O[C@@H]3O[C@H](CO)[C@@H](O)[C@H]3O)[C@@H](O)[C@H](N)C[C@@H]2N)[C@H](N)[C@@H](O)[C@@H]1O` [ribostamycin sulfate]: 0.00428; for `COc1ccc2[nH]cc(CCNC(C)=O)c2c1` [melatonin]: 0.0204.
As for `CCn1cc(C(=O)O)c(=O)c2cnc(N3CCNCC3)nc21` [pipemidic acid], the log came to 0.074.
`COc1cc2nc(N3CCN(C(=O)c4ccco4)CC3)nc(N)c2cc1OC` [prazosin hydrochloride]: the log was -0.00201.
The result for `NCCS(=O)(=O)O` [taurine] reads -0.102; that for `O=c1c(O)cccc2cc(O)c(O)c(O)c12` [purpurogallin], 0.104.
The same measure for `Cc1ccc(S(=O)(=O)NC(=O)NN2CC3CCCC3C2)cc1` (stereo unspecified) [gliclazide]: 3.55e-05; for `CC(=O)N[C@@H](CC(=O)N[C@@H](CCC(=O)O)C(=O)O)C(=O)O` [spaglumic acid]: 0.089; for `Nc1nc(=O)c2[nH]c(=O)cnc2[nH]1` [xanthopterin]: -0.15.
The same measure for `C#CCN(C)Cc1ccccc1` [pargyline hydrochloride]: -0.0289; for `CC(=O)O[C@H]1CC[C@@]2(C)[C@H](CC[C@@H]3[C@@H]2CC[C@]2(C)[C@@H]4[C@H](C[C@@H]32)O[C@]2(CC[C@@H](C)CO2)[C@H]4C)C1` [smilagenin acetate]: -0.00666.
For `CCCCCC(C)N` (stereo unspecified) [tuaminoheptane sulfate], the log was found to be 0.00562.
The same measure for `COc1ccc2cc(CCC(C)=O)ccc2c1` [nabumetone]: 0.184; for `O=C(O)CCC(=O)OC[C@@H](NC(=O)C(Cl)Cl)[C@H](O)c1ccc([N+](=O)[O-])cc1` [chloramphenicol sodium succinate]: -0.215.
The same measure for `CCn1cc(C(=O)O)c(=O)c2ccc(C)nc21` [nalidixic acid]: 0.239; for `COc1ccc(-c2oc3c(CC=C(C)C)c(O[C@@H]4O[C@H](CO)[C@@H](O)[C@H](O)[C@H]4O)cc(O)c3c(=O)c2O[C@@H]2O[C@@H](C)[C@H](O)[C@@H](O)[C@H]2O)cc1` [icariin]: -0.195.
Consider `C[C@H]1[C@@H](O)O[C@@H]2O[C@@]3(C)CC[C@H]4[C@H](C)CC[C@@H]1[C@@]24OO3` [artenimol], for which the log is -0.484.
The same measure for `CCN(CC)CCNC(=O)c1cc(S(C)(=O)=O)ccc1OC` [tiapride hydrochloride]: 0.0566; for `O=C(CCCN1CC=C(n2c(=O)[nH]c3ccccc32)CC1)c1ccc(F)cc1` [droperidol]: 0.0943.
Regarding `Oc1c(I)cc(I)c2cccnc12` [iodoquinol], the log is -0.0417.
The same measure for `O=c1cc(-c2ccc(O)cc2)oc2cc(O)cc(O)c12` [apigenin]: 0.136.
The same measure for `CCOc1cccc(C(=O)c2ccc(O)c(O)c2O)c1` [3,4-didesmethyl-5-deshydroxy-3'-ethoxyscleroin]: 0.0358.
The result for `CC(=O)OCC(COC(C)=O)OC(C)=O` [triacetin] reads 0.00411; that for `CN(C)CCN(Cc1cccs1)c1ccccn1` [methapyrilene hydrochloride], -0.0656.
Consider `COc1ccc2c(c1)OCc1c-2oc2cc(OC)ccc12` [dehydrovariabilin], for which the log was 0.0957.
The same measure for `COc1ccc([C@H]2COc3c(ccc(O)c3OC)C2)c(OC)c1O` [duartin (-)]: 0.124; for `NCCC[C@H](N)C(=O)O` [ornithine hydrochloride]: 0.116; for `NC(=O)N1c2ccccc2C=Cc2ccccc21` [carbamazepine]: -0.206.
The same measure for `COc1c2ccoc2nc2c(OC)c(OCC(O)C(C)(C)O)ccc12` (stereo unspecified) [evoxine]: 0.148; for `CC[C@H]1OC(=O)[C@H](C)[C@@H](O[C@H]2C[C@@](C)(OC)[C@@H](O)[C@H](C)O2)[C@H](C)[C@@H](O[C@@H]2O[C@H](C)C[C@H](N(C)C)[C@H]2O)[C@](C)(O)C[C@@H](C)/C(=N\OCOCCOC)[C@H](C)[C@@H](O)[C@]1(C)O` [roxithromycin]: 0.0881.
